The values below come from PMC8531446, “Light-triggered and phosphorylation-dependent 14-3-3 association with NON-PHOTOTROPIC HYPOCOTYL 3 is required for hypocotyl phototropism” (Nature Communications, 2021).

Sequences and labels used below:
T1: 14-3-3 epsilon:GFP (Arabidopsis thaliana) (UniProt P48347)
T1 sequence: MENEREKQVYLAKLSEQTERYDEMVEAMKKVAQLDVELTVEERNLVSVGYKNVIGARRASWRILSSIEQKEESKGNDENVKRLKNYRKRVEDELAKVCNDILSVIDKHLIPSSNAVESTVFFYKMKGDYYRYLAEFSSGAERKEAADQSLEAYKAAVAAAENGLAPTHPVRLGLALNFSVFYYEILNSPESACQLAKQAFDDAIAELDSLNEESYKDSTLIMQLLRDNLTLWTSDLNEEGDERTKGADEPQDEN

B1: sucrose phosphate synthase 1 (protein, UniProt Q94BT0 1-1043)
chain: MAGNDWVNSYLEAILDVGQGLDDARSSPSLLLRERGRFTPSRYFVEEVITGYDETDLHRSWVKAVATRSPQERNTRLENMCWRIWNLARQKKQHEEKEAQRLAKRRLEREKGRREATADMSEEFSEGEKGDIISDISTHGESTKPRLPRINSAESMELWASQQKGNKLYLVLISLHGLIRGENMELGRDSDTGGQVKYVVELARALGSMPGVYRVDLLTRQVSSPDVDYSYGEPTEMLTPRDSEDFSDEMGESSGAYIVRIPFGPKDKYIPKELLWPHIPEFVDGAMSHIMQMSNVLGEQVGVGKPIWPSAIHGHYADAGDATALLSGALNVPMLLTGHSLGRDKLEQLLRQGRLSKEEINSTYKIMRRIEGEELSLDVSEMVITSTRQEIDEQWRLYDGFDPILERKLRARIKRNVSCYGRFMPRMVKIPPGMEFNHIVPHGGDMEDTDGNEEHPTSPDPPIWAEIMRFFSNSRKPMILALARPDPKKNITTLVKAFGECRPLRELANLALIMGNRDGIDEMSSTSSSVLLSVLKLIDKYDLYGQVAYPKHHKQSDVPDIYRLAAKSKGVFINPAIIEPFGLTLIEAAAHGLPMVATKNGGPVDIHRVLDNGLLVDPHDQQSISEALLKLVADKHLWAKCRQNGLKNIHQFSWPEHCKTYLSRITSFKPRHPQWQSDDGGDNSEPESPSDSLRDIQDISLNLKFSFDGSGNDNYMNQEGSSMDRKSKIEAAVQNWSKGKDSRKMGSLERSEVNSGKFPAVRRRKFIVVIALDFDGEEDTLEATKRILDAVEKERAEGSVGFILSTSLTISEVQSFLVSGGLNPNDFDAFICNSGSDLHYTSLNNEDGPFVVDFYYHSHIEYRWGGEGLRKTLIRWASSLNEKKADNDEQIVTLAEHLSTDYCYTFTVKKPAAVPPVRELRKLLRIQALRCHVVYSQNGTRINVIPVLASRIQALRYLFVRWGIDMAKMAVFVGESGDTDYEGLLGGLHKSVVLKGVSCSACLHANRSYPLTDVISFESNNVVHASPDSDVRDALKKLELLKD
B2: cytosolic invertase 1 (protein, UniProt Q9LQF2 1-551)
chain: MEGVGLRAVGSHCSLSEMDDLDLTRALDKPRLKIERKRSFDERSMSELSTGYSRHDGIHDSPRGRSVLDTPLSSARNSFEPHPMMAEAWEALRRSMVFFRGQPVGTLAAVDNTTDEVLNYDQVFVRDFVPSALAFLMNGEPDIVKHFLLKTLQLQGWEKRVDRFKLGEGVMPASFKVLHDPIRETDNIVADFGESAIGRVAPVDSGFWWIILLRAYTKSTGDLTLSETPECQKGMKLILSLCLAEGFDTFPTLLCADGCSMIDRRMGVYGYPIEIQALFFMALRSALSMLKPDGDGREVIERIVKRLHALSFHMRNYFWLDHQNLNDIYRFKTEEYSHTAVNKFNVMPDSIPEWVFDFMPLRGGYFVGNVGPAHMDFRWFALGNCVSILSSLATPDQSMAIMDLLEHRWAELVGEMPLKICYPCLEGHEWRIVTGCDPKNTRWSYHNGGSWPVLLWQLTAACIKTGRPQIARRAVDLIESRLHRDCWPEYYDGKLGRYVGKQARKYQTWSIAGYLVAKMLLEDPSHIGMISLEEDKLMKPVIKRSASWPQL
B3: phytochrome A (protein, UniProt P14712 1-1122)
chain: MSGSRPTQSSEGSRRSRHSARIIAQTTVDAKLHADFEESGSSFDYSTSVRVTGPVVENQPPRSDKVTTTYLHHIQKGKLIQPFGCLLALDEKTFKVIAYSENASELLTMASHAVPSVGEHPVLGIGTDIRSLFTAPSASALQKALGFGDVSLLNPILVHCRTSAKPFYAIIHRVTGSIIIDFEPVKPYEVPMTAAGALQSYKLAAKAITRLQSLPSGSMERLCDTMVQEVFELTGYDRVMAYKFHEDDHGEVVSEVTKPGLEPYLGLHYPATDIPQAARFLFMKNKVRMIVDCNAKHARVLQDEKLSFDLTLCGSTLRAPHSCHLQYMANMDSIASLVMAVVVNEEDGEGDAPDATTQPQKRKRLWGLVVCHNTTPRFVPFPLRYACEFLAQVFAIHVNKEVELDNQMVEKNILRTQTLLCDMLMRDAPLGIVSQSPNIMDLVKCDGAALLYKDKIWKLGTTPSEFHLQEIASWLCEYHMDSTGLSTDSLHDAGFPRALSLGDSVCGMAAVRISSKDMIFWFRSHTAGEVRWGGAKHDPDDRDDARRMHPRSSFKAFLEVVKTRSLPWKDYEMDAIHSLQLILRNAFKDSETTDVNTKVIYSKLNDLKIDGIQELEAVTSEMVRLIETATVPILAVDSDGLVNGWNTKIAELTGLSVDEAIGKHFLTLVEDSSVEIVKRMLENALEGTEEQNVQFEIKTHLSRADAGPISLVVNACASRDLHENVVGVCFVAHDLTGQKTVMDKFTRIEGDYKAIIQNPNPLIPPIFGTDEFGWCTEWNPAMSKLTGLKREEVIDKMLLGEVFGTQKSCCRLKNQEAFVNLGIVLNNAVTSQDPEKVSFAFFTRGGKYVECLLCVSKKLDREGVVTGVFCFLQLASHELQQALHVQRLAERTAVKRLKALAYIKRQIRNPLSGIMFTRKMIEGTELGPEQRRILQTSALCQKQLSKILDDSDLESIIEGCLDLEMKEFTLNEVLTASTSQVMMKSNGKSVRITNETGEEVMSDTLYGDSIRLQQVLADFMLMAVNFTPSGGQLTVSASLRKDQLGRSVHLANLEIRLTHTGAGIPEFLLNQMFGTEEDVSEEGLSLMVSRKLVKLMNGDVQYLRQAGKSSFIITAELAAANK
B4: NPH3, endogenous in Arabidopsis seedlings (protein, UniProt Q9FMF5 1-746)
chain: MMWESESDGGVGVGGGGGREYGDGVLSSNKHGGVKTDGFELRGQSWFVATDIPSDLLVKIGDMNFHLHKYPLLSRSGKMNRLIYESRDPDPTILILDDLPGGPEAFELASKFCYGVPVDLTATNISGLRCAAEYLEMTEDLEEGNLIFKTEAFLSYVVLSSWRDSILVLKSCEKLSPWAENLQIVRRCSESIAWKACSNPKGIRWAYTGKAPSPSTTNFAGSSPRWNESKDSSFYCSPSRNTNSQPVPPDWWFEDVSILRIDHFVRVITAIKVKGMRFELLGAVIMHYAGKWLPGLIKEGGVAIAPAMSSAIGGGLGLGGDEMSISCGSNSSGGSSGPDWKGGLHMVLSAGKTNGHQDSVACLAGLGISPKDQRMIVESLISIIPPQKDSVTCSFLLRLLRAANMLKVAPALITELEKRVGMQFEQATLQDLLIPGYNNKGETMYDVDLVQRLLEHFLVQEQTEGSSPSRMSPSPSQSMYADIPRGNNNNGGGGGGNNQNAKMRVARLVDSYLTEVARDRNLPLTKFQVLAEALPESARTCDDGLYRAIDSYLKAHPTLSEHERKRLCRVMDCQKLSMDACMHAAQNERLPLRVVVQVLFSEQVKISNALANTSLKESTTLGEAMGTYQPMIPNRKTLIEATPQSFQEGWAAAKKDINTLKFELETVKTKYVELQNEMEVMQRQFEKTGKVKNTPSSSAWTSGWKKLSKLTKMSGQESHDISSGGEQAGVDHPPPRKPRRWRNSIS

No constants are given. Whether binding was seen depends on the method and setting. Binding seen in cells or lysates may run through a third protein. These calls come from enrichment with a bait or labelling near it, and not all partners need be listed. Tags and fused reporters may be left off the sequences shown.

The target in this assay is T1, 14-3-3 epsilon:GFP (Arabidopsis thaliana). The assay is described as follows: affinity purification with mass spectrometry; 3-day-old etiolated Arabidopsis seedlings expressing 14-3-3 epsilon:GFP (native promoter), kept in darkness or irradiated with blue light (1 μmol m^-2 s^-1, 30 min); GFP-Trap beads, lysis buffer 50 mM Tris pH 7.5, 150 mM NaCl, 1% Triton X-100; LC-MS/MS; UBQ10::GFP as control; two biological replicates.
B1: the binding result is reported as “binds”. As for B2, the binding result was “binds”. In the case of B3, the binding result was “binds”. Turning to B4, the binding entry is on record as “binds”.
